Reference: PubChem BioAssay AID686938 (Drosophila RNAi Screening Center, 2013)

- Aim: 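Knock-downs reducing store-operated calcium influx in Drosophila cells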 (primary screen)
- System: Drosophila S2R+ cells
- Reagent: long dsRNA against Drosophila genes, about 0.25 µg dsRNA per well, roughly 10,000 cells
- Timing: 5 days of knock-down before the calcium assay
- Treatment: thapsigargin (SERCA pump blocker) to empty calcium stores; entry signal taken 4 min after adding it
- Detection: 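Duplicate raw fluo-4 intensities per well from a plate reader, at rest and four minutes after thapsigargin emptied calcium stores; entry-to-rest ratio filled for only some wells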
- Direction: calcium entry signal: higher = stronger calcium signal after store depletion; resting calcium signal: higher = higher resting calcium signal
- Rule for the call: 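Hit if the duplicate-averaged plate z-score for entry over resting signal is under −3; wells with weak total dye signal (Fmax z < −2) or more than 5 off-targets removed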
- Calls: active = strongly reduced calcium entry; inactive = no strong reduction
The deposit covers about 23,000 reagents; shown is an unselected part of those with a known target gene and a result. In the full data, 75 (0.33%) are marked active. 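Raw plate signals without normalisation; calls rest on plate z-scores that were not deposited; ratio present for only 364 wells.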 No sequences are given here. Not stated in the record: the dose of the treatment.

gene	amplicon	calcium entry signal, replicate 1 (fluorescence units)	calcium entry signal, replicate 2 (fluorescence units)	resting calcium signal, replicate 1 (fluorescence units)	resting calcium signal, replicate 2 (fluorescence units)	activity call
Fili (Fish-lips)	DRSC03907	2.56e7	4.42e7	1.25e7	1.78e7	inactive
Fili (Fish-lips)	DRSC04132	4.65e7	4.73e7	2.20e7	1.99e7	inactive
Fili (Fish-lips)	DRSC04445	4.55e7	4.92e7	2.23e7	2.24e7	inactive
ms(3)76Ba (male sterile (3) 76Ba)	DRSC10091	2.34e7	4.05e7	1.13e7	1.85e7	inactive
MED4 (Mediator complex subunit 4)	DRSC11014	5.04e7	3.11e7	3.27e7	1.35e7	inactive
CG11997	DRSC14464	4.50e7	4.64e7	2.10e7	2.28e7	inactive
PMP34 (Peroxisomal Membrane Protein 34)	DRSC21939	3.94e7	6.73e7	1.86e7	3.17e7	inactive
mRpL27 (mitochondrial ribosomal protein L27)	DRSC22568	4.49e7	4.27e7	1.97e7	1.59e7	inactive
CG11456	DRSC11665	4.18e7	4.55e7	1.94e7	3.17e7	inactive
Rbf (Retinoblastoma-family protein)	DRSC18704	4.58e7	3.74e7	2.01e7	1.80e7	inactive
Sfp26Ad (Seminal fluid protein 26Ad)	DRSC00904	2.83e7	3.61e7	1.57e7	1.49e7	inactive
CG31769	DRSC01361	1.88e7	2.74e7	1.05e7	1.20e7	inactive
Sodh1 (Sorbitol dehydrogenase 1)	DRSC12605	3.70e7	4.84e7	1.66e7	2.05e7	inactive
eIF4E3 (eukaryotic translation initiation factor 4E3)	DRSC10952	4.01e7	2.29e7	2.71e7	9.74e6	inactive
Sardh (Sarcosine dehydrogenase)	DRSC06981	3.24e7	3.74e7	1.51e7	1.75e7	inactive
CG2930	DRSC17730	4.03e7	4.78e7	1.77e7	2.19e7	inactive
Mer (Merlin)	DRSC20259	2.75e7	2.34e7	1.63e7	1.15e7	inactive
mRpL22 (mitochondrial ribosomal protein L22)	DRSC19915	3.97e7	3.43e7	1.72e7	1.44e7	inactive
RhoGDI	DRSC10919	3.96e7	4.45e7	1.78e7	2.88e7	inactive
CG31915	DRSC03000	2.20e7	2.28e7	1.05e7	1.00e7	inactive
CG8001	DRSC08611	4.13e7	3.89e7	1.93e7	1.89e7	inactive
CG1724	DRSC20548	3.66e7	4.02e7	2.03e7	1.71e7	inactive
Eglp2 (Entomoglyceroporin 2)	DRSC04294	3.88e7		2.00e7		inactive
cnc (cap-n-collar)	DRSC14676	3.72e7	5.01e7	2.02e7	1.92e7	inactive
cnc (cap-n-collar)	DRSC15289	4.10e7	3.66e7	2.01e7	1.81e7	inactive
cnc (cap-n-collar)	DRSC15600	4.31e7	5.52e7	2.22e7	2.30e7	inactive
cnc (cap-n-collar)	DRSC15601	3.69e7	5.96e7	1.89e7	2.44e7	inactive
